Test results taken from the supplement of paper PMC3334620.
Over roughly 33,000 sequences, “E-score (-0.5 to 0.5)” has its median near -0.016; the highest 2% begin near 0.3. Some of the results follow.

biological target: T1, Yer184c (UniProt P39961); test: PBM E-score (8-mer binding enrichment) (E-score (-0.5 to 0.5)); higher = stronger / more preferred TF binding; conditions: protein concentration: 100 nM; construct: GST-full length
T1 sequence: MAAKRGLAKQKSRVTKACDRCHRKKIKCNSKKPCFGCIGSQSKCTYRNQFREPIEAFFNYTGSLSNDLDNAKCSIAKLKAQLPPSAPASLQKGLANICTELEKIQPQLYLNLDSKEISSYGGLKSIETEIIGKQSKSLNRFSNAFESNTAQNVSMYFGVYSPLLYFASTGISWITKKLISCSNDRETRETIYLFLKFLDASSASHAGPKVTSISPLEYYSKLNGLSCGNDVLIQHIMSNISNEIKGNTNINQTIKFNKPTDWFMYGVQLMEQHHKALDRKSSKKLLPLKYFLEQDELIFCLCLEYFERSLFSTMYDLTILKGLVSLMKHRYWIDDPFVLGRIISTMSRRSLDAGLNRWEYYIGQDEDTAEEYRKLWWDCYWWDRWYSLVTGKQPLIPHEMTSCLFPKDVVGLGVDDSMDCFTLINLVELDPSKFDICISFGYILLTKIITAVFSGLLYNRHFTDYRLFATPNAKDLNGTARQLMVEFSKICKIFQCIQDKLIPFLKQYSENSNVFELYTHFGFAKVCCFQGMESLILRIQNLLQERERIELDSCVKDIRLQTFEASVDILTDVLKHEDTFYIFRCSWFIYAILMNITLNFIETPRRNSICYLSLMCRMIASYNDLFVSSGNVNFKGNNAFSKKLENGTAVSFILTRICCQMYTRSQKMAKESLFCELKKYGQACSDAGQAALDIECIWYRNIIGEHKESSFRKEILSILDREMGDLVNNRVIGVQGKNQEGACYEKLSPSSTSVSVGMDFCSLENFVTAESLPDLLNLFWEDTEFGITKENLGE
Method in brief: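 GST-tagged yeast TFs (full-length or DNA-binding domain) were made by PURExpress in vitro transcription/translation and applied at about 100-200 nM to universal all-10-mer Agilent arrays. The arrays were made double-stranded by primer extension, on fresh or once-stripped slides. Bound protein was detected with fluorescent anti-GST, and scans were normalised with masliner. Each ungapped eight-base word, pooled with its reverse complement, received an E-score (modified Wilcoxon-Mann-Whitney statistic) from the Universal PBM Analysis Suite.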

| Sequence | PBM E-score |
| --- | --- |
| TGTCCTAA | 0.0311 |
| GAAGCTAC | 0.121 |
| AAATACCA | 0.15 |
| AGAGTATC | 0.0154 |
| TACGTATA | 0.119 |
| AAGGGACA | -0.0615 |
| GGCTTACA | 0.0186 |
| GGATGGCA | 0.145 |
| GGGGCGAA | -0.138 |
| CCGAAGCG | 0.177 |
| AAGGGAAA | 0.0001 |
| ACGAGGCC | -0.12 |
| AACGGGGG | -0.269 |
| ACTTCCAC | -0.0554 |
| GCTTTCAC | -0.0781 |
| ATGGTGTG | -0.0965 |
| ATGTTGCG | 0.0282 |
| CATACTAG | 0.052 |
| AGATCAAC | -0.0455 |
| AGGTACCA | -0.106 |
| ATCTAAGC | -0.172 |
| ATCCAACA | 0.0993 |
| CCTGTATC | -0.00733 |
| GCCGAGTA | 0.262 |
| AATTGAGG | -0.0637 |

| Sequence | PBM E-score |
| --- | --- |
| GCCCAAGA | -0.218 |
| AAGATCCT | 0.0626 |
| ATATATCA | 0.115 |
| GTGCATAA | 0.0831 |
| GTGGTCCA | -0.0671 |
| ACCAAACT | -0.1 |
| ACCATGAA | 0.174 |
| AGTTGGCC | -0.179 |
| GCTTCCAC | -0.0352 |
| CGGGCGCC | 0.05 |
| ATGCCAGA | 0.0873 |
| AGAGGGGC | -0.158 |
| AATCACCC | 0.01 |
| GCTGTAAC | 0.0846 |
| AAAGATAC | 0.0833 |
| ACCGCCTC | -0.132 |
| AAGGCAAC | 0.0867 |
| ACGGGACA | 0.0644 |
| CAGATTTA | 0.133 |
| ACAGATCT | 0.00119 |
| AAGGTCGC | -0.0692 |
| CTATTCAG | -0.0636 |
| TACCGCTA | -0.167 |
| TAGCCGAA | 0.276 |
| CGTGTGGA | -0.122 |

| Sequence | PBM E-score |
| --- | --- |
| CTTAGTCC | 0.0476 |
| TCACTAGA | 0.0233 |
| AGAACCGC | 0.183 |
| AGACACTC | 0.0334 |
| CAGTAATG | -0.0116 |
| ATACTCTA | 0.0257 |
| GTCGCCGA | 0.219 |
| AACCCGTC | -0.15 |
| GCAGTAAC | -0.167 |
| ACTTCAAC | 0.144 |
| AAAAACTA | 0.221 |
| GAGACACA | 0.0619 |
| ATTAGATG | 0.208 |
| CATTCAAC | 0.0692 |
| CATCCGGC | 0.358 |
| TAAGGGAA | -0.174 |
| TTAAAGAA | 0.134 |
| CGTTATAC | -0.11 |
| ACACCCAC | -0.108 |
| CCTCGGCC | 0.257 |
| CAAATAAG | 0.069 |
| AGTAACTA | 0.173 |
| AAGTCGTA | -0.236 |
| ATATATCG | 0.312 |
| GGGGGCAA | -0.376 |

| Sequence | PBM E-score |
| --- | --- |
| ACTCCCTG | -0.281 |
| CAGACCTC | -0.149 |
| CAGGGCAA | -0.128 |
| AGTCAACA | 0.0316 |
| AGAGCATC | -0.0427 |
| GGCGGCGA | 0.0554 |
| TACGGCGA | 0.189 |
| GTACAATA | 0.188 |
| CCGAGTAC | 0.161 |
| CCTATAAC | -0.291 |
| CAAAATAG | -0.122 |
| AGCATGGA | -0.123 |
| AGCGACAG | -0.0265 |
| AACGTAAC | 0.0313 |
| CATCAAGA | 0.0421 |
| AAAAGTCT | -0.0201 |
| TGAATACA | 0.197 |
| AGCTCCTG | -0.209 |
| TGAGTTAA | 0.117 |
| AATAAAGG | -0.187 |
| CCCAAGAG | -0.17 |
| AGGGCACC | -0.34 |
| AGAAGCCG | 0.19 |
| GCTAGTCA | -0.279 |
| AGCGACTC | -0.194 |

| Sequence | PBM E-score |
| --- | --- |
| GTGGTGTA | -0.0193 |
| AATAAATA | 0.414 |
| GGTGAAAA | 0.232 |
| CGCAGAGA | -0.249 |
| CACCCGAG | -0.0578 |
| AGCTATTC | -0.0947 |
| ACTTGGCT | -0.154 |
| GGCGCTCA | -0.053 |
| CTAACAGA | 0.179 |
| GATCTCCC | -0.191 |
| ACAACAAT | 0.0345 |
| ATGCAGTC | -0.171 |
| GCAGGCCA | 0.0121 |
| GAATATGA | 0.0575 |
| AGGGTCTA | -0.11 |
| GAAAGAGC | -0.0552 |
| CCCAAACG | -0.17 |
| ATGCACGG | -0.0666 |
| CCCACGGC | -0.13 |
| ATTCAGCC | 0.062 |
| ACGGGGTC | -0.177 |
| ATCCCACA | -0.261 |
| ACGGCGCA | 0.118 |
| GGTGTAAC | 0.124 |
| CGAAAGAC | 0.14 |

| Sequence | PBM E-score |
| --- | --- |
| CATTAGTC | 0.0751 |
| ACCGTTGG | -0.244 |
| ACATGAGG | -0.189 |
| CTTTTACA | 0.178 |
| ACAACCCA | -0.0161 |
| AGTGCATC | -0.108 |
| AAGGGAGG | -0.274 |
| AAGGCGGA | 0.00368 |
| GTAGTTGA | 0.0649 |
| CGTCGACG | -0.147 |
| CCAGGATA | -0.0425 |
| CATGCGGA | -0.0112 |
| AGTGCACC | -0.0522 |
| ACACACAG | 0.0494 |
| ACGTTATA | 0.126 |
| ATGATGAG | 0.0229 |
| CAGCACGC | 0.0884 |
| CGCACCCA | -0.264 |
| GTCTACTA | -0.00492 |
| ACAACGGC | 0.124 |
| CGCTTCAG | -0.0892 |
| GCACCTCA | 0.0813 |
| CATCTTAA | 0.0283 |
| CGAGGTAG | -0.2 |
| CTCAACGC | -0.232 |

| Sequence | PBM E-score |
| --- | --- |
| AACCTGAG | -0.132 |
| AAATGACG | 0.0459 |
| CGGTGATA | 0.105 |
| AACCTCCC | -0.158 |
| GGAATTTA | 0.181 |
| AAGCAACT | 0.12 |
| CTATCGCC | -0.124 |
| CAGATTCC | 0.0126 |
| CGCTAATC | -0.0149 |
| CCGTTAGC | -0.0068 |
| AAAAAACG | 0.24 |
| ATACAATA | 0.275 |
| CATGAGAG | -0.026 |
| ACCCTCGC | -0.191 |
| ACACCTCC | -0.113 |
| AGGCGTTG | -0.11 |
| GTGGATCA | -0.254 |
| ACCAATCT | -0.114 |
| CTGATGAC | -0.144 |
| GCGGATGA | 0.125 |
| ATCAGAAG | -0.0418 |
| AGGCAGCG | -0.209 |

Taken from above.
PBM E-score with GCTTCCAC is entered as -0.0352
PBM E-score with ACACCCAC is entered as -0.108
PBM E-score with AGGTACCA is entered as -0.106
PBM E-score with GATCTCCC is entered as -0.191
PBM E-score with CTTAGTCC is entered as 0.0476
